Data reported in the supplement of paper PMC4862054.
Most entries show no effect beyond the scatter of the controls.

Assays:
Assay in all cases: normalised response (% of control), CellTox Green; higher = less cell death (100 = DMSO, 0 = benzethonium chloride kill control)
Conditions in all cases: incubation time: 72 h
BT-474 = tested on: BT-474
Description: (§1)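 DSRT, 72 h incubation, CellTox Green / CellTiter-Glo readout. Signal is normalised to DMSO and benzethonium chloride controls. Value is the normalised response at the lowest tested concentration.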

BT-549 = tested on: BT-549
Description: as §1

CAL-120 = tested on: CAL-120
Description: as §1

CAL-148 = tested on: CAL-148
Description: as §1

CAL-51 = tested on: CAL-51
Description: as §1

CAL-85-1 = tested on: CAL-85-1
Description: as §1

DU-4475 = tested on: DU-4475
Description: as §1

HCC1143 = tested on: HCC1143
Description: as §1

HCC1599 = tested on: HCC1599
Description: as §1

HCC1937 = tested on: HCC1937
Description: as §1

HDQ-P1 = tested on: HDQ-P1
Description: as §1

Hs578T = tested on: Hs578T
Description: as §1

MCF-10A = tested on: MCF-10A
Description: as §1

MDA-MB-231 = tested on: MDA-MB-231
Description: as §1

MDA-MB-453 = tested on: MDA-MB-453
Description: as §1

MDA-MB-468 = tested on: MDA-MB-468
Description: as §1

MFM-223 = tested on: MFM-223
Description: as §1

MDA-MB-436 = tested on: MDA-MB-436
Description: as §1

Structure (SMILES) | normalised response (BT-474) | normalised response (BT-549) | normalised response (CAL-120) | normalised response (CAL-148) | normalised response (CAL-51) | normalised response (CAL-85-1) | normalised response (DU-4475) | normalised response (HCC1143) | normalised response (HCC1599) | normalised response (HCC1937) | normalised response (HDQ-P1) | normalised response (Hs578T) | normalised response (MCF-10A) | normalised response (MDA-MB-231) | normalised response (MDA-MB-453) | normalised response (MDA-MB-468) | normalised response (MFM-223) | normalised response (MDA-MB-436)
CC(C)(C)Cn1c(N)nc2ccc(-c3[nH]c(C(C)(C)C)nc3-c3ccc(F)cc3)nc21 (1 nM) | 98.4% | 88.4% | 105% | 104% | 113% | 101% | 105% | 67.5% | 102% | 109% | 91.6% | 115% | 110% | 106% | 105% | 63.9% | 103% | 
Oc1ncnc2[nH]ncc12 [Allopurinol] (1 nM) | 102% | 101% | 103% | 102% | 117% | 101% | 103% | 79.8% | 109% | 86.9% | 86.2% | 98.2% | 107% | 113% | 108% | 77.1% | 85.4% | 
Cc1cc2c(F)c(Oc3ncnn4cc(OC[C@@H](C)O)c(C)c34)ccc2[nH]1 [Brivanib] (0.1 nM) | 102% | 99.4% | 100% | 101% | 120% | 99.2% | 106% | 115% | 108% | 91.7% | 87.8% | 111% | 106% | 88.2% | 102% |  | 84.9% | 97.3%
CNC(=O)c1cc(Oc2ccc(NC(=O)Nc3cc(C(C)(C)C)nn3-c3ccc4ncccc4c3)c(F)c2)ccn1 [Rebastinib] (0.1 nM) | 95.5% | 99% | 96.2% | 100% | 119% | 110% | 105% | 119% | 99.9% | 104% | 81.5% |  | 110% | 114% | 50% |  | 101% | 
COc1cc2nccc(Oc3ccc(NC(=O)Nc4cc(C)on4)c(Cl)c3)c2cc1OC [Tivozanib] (1 nM) | 102% | 96.6% | 92.9% | 99.1% | 109% | 106% | 94.2% | 115% | 92.8% | 77.8% |  | 79.7% | 97.6% | 105% | 108% | 76.1% | 100% | 83.6%
